This is one part of the list. Shown are side measurements of this screen, not its main read-out; they come without a call. Most of these compounds were active or inconclusive in the main read-out, so they are no random draw. Words in brackets tell the shape of the fitted curve; partial curves, single points and poor fits give uncertain potencies.
Assay: qHTS Assay for Lipid Storage Modulators in Drosophila S3 Cells;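 on cell number change: cells counted by Cell Tracker Red CMTPX staining in the red channel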
Conditions: BODIPY lipid droplet fluorescence, 18-24 h; for cell number change: measured here: cell count max response, cells fed with added oleic acid
Outline: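 Drosophila S3 cells got compounds at several concentrations plus oleic acid (400 uM solution). Laser-scanning cytometry with 488 nm excitation read lipid droplets at 500-530 nm and cells at 575-640 nm. Percent activity was relative to 20 uM Triacsin C.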

[1] = measured here: lipid fluorescence (Fed channel) AC50, cells fed with added oleic acid
[2] = measured here: cell number channel AC50, cells fed with added oleic acid

Cc1ccccc1NC(=S)Nc1cccc2cnccc12
cell number change: 7.51%
AC50 [1]: 29.1 µM [rising, single point]

CS(=O)(=O)N(CC(=O)N1CCc2ccccc2C1)c1ccc2c(c1)OCO2
cell number change: 1.08%
AC50 [1]: 2.91 µM [rising, partial curve]

COc1ccccc1OCC(=O)NCC1CCCN(C(=O)c2ccccc2C(C)=O)C1 (centres undefined)
cell number change: 6.93%

COc1ccc(Br)cc1CNCC1CCCO1 (centres undefined)
cell number change: -0.88%

Cc1noc(C)c1S(=O)(=O)N1CCC(C(=O)O)CC1
cell number change: -17.5%
AC50 [1]: 0.00461 µM [falling, full curve, poor fit]

COC(Cc1nnc(SC)n1-c1ccccc1)OC
cell number change: 51.4%
AC50 [2]: 10.3 µM [rising, partial curve, poor fit]

C/C(=N\NC(=O)c1cccc(F)c1)c1ccc(Br)s1
cell number change: 6.98%
AC50 [1]: 10.3 µM [rising, partial curve]

O=c1[nH]c2ccccc2c2nc3ccccn3c12
cell number change: -5.71%

C=CCNC1=C(Cl)C(=O)N(c2ccccc2Cl)C1=O
cell number change: 2.05%
AC50 [1]: 0.184 µM [falling, full curve, poor fit]

CCNC(=O)COc1ccc(/C=N/NC(=O)c2cccnc2)cc1OC
cell number change: -33.4%
AC50 [2]: 0.708 µM [falling, full curve, poor fit]

CCC(=O)Nc1ccc(N2CCN(C(=O)c3ccccc3C)CC2)cc1
cell number change: 25.3%
AC50 [1]: 29.1 µM [rising, single point]

COc1ccc(/C=C(/NC(=O)c2ccco2)C(=O)NCCc2ccccc2)cc1
cell number change: 4.82%
AC50 [2]: 0.058 µM [rising, full curve, poor fit]
AC50 [1]: 29.1 µM [rising, single point]

CC(=O)Nc1ccc(NC(=O)CSc2ccc3nnc(-c4ccccn4)n3n2)cc1
cell number change: -0.601%
AC50 [1]: 0.731 µM [rising, full curve, poor fit]

C=CCn1c(COc2ccc(F)cc2)nnc1SCC(=O)NC1CCS(=O)(=O)C1 (centres undefined)
cell number change: 13.5%
AC50 [1]: 2.31 µM [rising, partial curve, poor fit]

Cc1ccc(C)c(N(CC(=O)N2CCCCCC2)S(C)(=O)=O)c1
cell number change: 8.21%
AC50 [1]: 16.4 µM [rising, partial curve]

CCCC[C@H]1COCCS(=O)(=O)N1Cc1ccc(Br)cc1
cell number change: -9.28%
AC50 [1]: 29.1 µM [falling, single point]

O=C(CN1CCCC1)Nc1ccc2c(c1)CCC2
cell number change: -37.2%
AC50 [1]: 0.731 µM [falling, full curve]

NS(=O)(=O)c1ccc(NC(=O)CN2CCN(S(=O)(=O)c3cccs3)CC2)cc1
cell number change: 24.5%

C#CCOCCOCCOCCNc1nc(N2CCN(C(=O)[C@H](CCC(=O)O)n3cc(C(N)CC(C)C)nn3)CC2)nc(N2CCN(C(=O)[C@H](CCC(=O)O)n3cc(C(N)[C@H](C)CC)nn3)CC2)n1 (some centres undefined)
cell number change: -20%
AC50 [1]: 5.8 µM [falling, full curve]

CSc1snnc1-c1ccccc1
AC50 [2]: 0.82 µM [rising, single point]
AC50 [1]: 1.03 µM [rising, single point]

O=c1nccc(NCc2ccco2)[nH]1
cell number change: -2.04%
AC50 [1]: 0.00184 µM [falling, full curve, poor fit]

CC1=CC(C)(C)[N+](C)(C)c2ccc(C)cc21
cell number change: 9.62%
AC50 [2]: 6.51 µM [falling, single point]
AC50 [1]: 6.51 µM [falling, single point]

CCOC(=O)c1ccc(C(=O)OCC)nc1
cell number change: -72.7%
AC50 [2]: 29.1 µM [falling, single point]

COC(=O)c1ccc(-c2csc(NC(=O)c3c(C)noc3C)n2)cc1
cell number change: -19.6%
AC50 [1]: 1.46 µM [rising, partial curve]

CCOc1ccc(NC(=O)COC(=O)c2ccc3c(c2)OCO3)cc1
cell number change: -3.38%
AC50 [1]: 29.1 µM [rising, single point]

O=C(O)CCc1ccc(-c2ccccc2)n1NC(=O)c1cccs1
cell number change: 6.7%

O=C(/C=C/c1ccc2ccccc2n1)c1cc(Cl)ccc1O
cell number change: 3.74%
AC50 [1]: 5.8 µM [falling, full curve, poor fit]

S=C(NCCCN1CCOCC1)Nc1ccc(Cl)c(Cl)c1
cell number change: 4.97%
AC50 [1]: 0.326 µM [rising, full curve, poor fit]

O=C(NC(=S)Nc1ccc([N+](=O)[O-])cc1O)C1CCCCC1
cell number change: -30.3%
AC50 [2]: 32.6 µM [falling, single point]
AC50 [1]: 20.6 µM [falling, single point]

COC(=O)c1sc2ncccc2c1OCc1c(Cl)cccc1Cl
cell number change: -44.8%
AC50 [2]: 20.6 µM [falling, single point]
AC50 [1]: 2.31 µM [falling, partial curve]

C=C(C)/C=N/NC(=S)Nc1ccc(S(=O)(=O)N2CCOCC2)cc1
cell number change: 5.09%

Cc1nc2sc3c(O)cc(=O)[nH]c3c2c(C)c1C
cell number change: 18.1%
AC50 [1]: 2.31 µM [rising, full curve, poor fit]

NC(=S)N/N=C/c1ccc(-c2ccccc2)o1
cell number change: -1.48%
AC50 [2]: 0.731 µM [rising, single point]
AC50 [1]: 0.651 µM [rising, single point]

CCc1noc(C)c1C(=O)OCC(=O)Nc1c(F)cccc1F
cell number change: 1.61%

CC[C@@H](C)[C@H](CN[C@H](CNC)C(C)C)NC[C@@H](C)c1ccc(CC(C)C)cc1
cell number change: -0.299%
AC50 [1]: 32.6 µM [rising, single point]

O=C(Cc1ccc(S(=O)(=O)N2CCCC2)s1)Nc1nc2c(s1)CCCC2
AC50 [2]: 6.51 µM [rising, single point]

CC(=O)Nc1ccc(S(=O)(=O)NCCC(=O)Nc2ncccc2C)cc1
AC50 [1]: 8.2 µM [rising, partial curve]

Cc1ccc(C(=O)NC2=NCCS2)cc1Cl
cell number change: 34.7%
AC50 [1]: 6.51 µM [rising, single point]

O=c1oc2ccccc2n1Cc1ccccc1F
cell number change: -22.5%

CC(Sc1nnc(C(C)Oc2ccccc2F)o1)C(=O)NCc1ccc2c(c1)OCO2 (centres undefined)
cell number change: -6.38%
AC50 [1]: 0.651 µM [falling, partial curve, poor fit]

O=C(N/N=C/c1ccc2ncccc2c1)c1ccco1
cell number change: 27%
AC50 [1]: 0.517 µM [falling, single point]

O=C(COc1cccc([N+](=O)[O-])c1)NN1C(=O)c2ccccc2C1=O
cell number change: 21%
AC50 [1]: 1.64 µM [rising, full curve, poor fit]

CCN(CC)S(=O)(=O)c1ccc(NS(=O)(=O)c2ccc(OC)c([N+](=O)[O-])c2)cc1
cell number change: 19%
AC50 [1]: 16.4 µM [rising, single point]

CC(C)N1CCC(N2CCN(Cc3ccc4nonc4c3)CC2CCO)CC1 (centres undefined)
cell number change: 16.8%
AC50 [1]: 6.51 µM [rising, single point]

CC(C)COc1ccc(C/C(N)=N/n2cnnc2)cc1
AC50 [1]: 18.4 µM [falling, partial curve]

Cc1cc(C(=O)OCC(=O)NCCc2ccccc2)c2ccccc2n1
cell number change: -38.8%
AC50 [2]: 13 µM [falling, partial curve, poor fit]
AC50 [1]: 2.59 µM [falling, single point]

Cc1ccc2nc(NCCNC(=O)c3ccccc3)c(C#N)cc2c1
cell number change: -7.62%
AC50 [1]: 5.17 µM [falling, partial curve, poor fit]

O=C(OCc1ccc(COC(=O)c2ccccn2)cc1)c1ccccn1
cell number change: 2.05%

O=C(Cc1ccc(NC2=NC3CS(=O)(=O)CC3S2)cc1)NCc1ccc(Cl)cc1 (centres undefined)
cell number change: 7.78%

CC(C)CCN1CC(O)=C(c2nc3ccccc3[nH]2)C1=N
cell number change: 56.5%
AC50 [2]: 29.1 µM [rising, single point]
AC50 [1]: 3.26 µM [falling, partial curve]

COC(=O)C1=C(CS(=O)(=O)c2ccc(C)cc2)NC(=O)NC1c1ccc(OC)c(OC)c1 (centres undefined)
cell number change: 14.6%
AC50 [1]: 0.731 µM [rising, single point]

O=C(O)Cc1ccc(Nc2cnn(C34CC5CC(CC(CC(=O)O)(C5)C3)C4)c(=O)c2Cl)cc1
cell number change: -36.5%
AC50 [2]: 0.0259 µM [falling, full curve]
AC50 [1]: 29.1 µM [falling, single point]

COc1ccc(-c2ccc(SCC(=O)N3CCCC3)nn2)cc1OC
cell number change: 3.25%
AC50 [2]: 2.31 µM [rising, partial curve, poor fit]

CS(=O)(=O)N(CC(=O)N1CCN(Cc2ccccc2)CC1)c1cccc(F)c1
cell number change: -15.7%
AC50 [1]: 0.206 µM [falling, full curve, poor fit]

CC(=O)Nc1ccc(C(=O)N/C(=C\c2ccccc2)C(=O)Nc2cccc(C(=O)O)c2)cc1
cell number change: -11%
AC50 [1]: 0.259 µM [falling, partial curve, poor fit]

COCCNC(=O)C(C(=O)c1ccc(F)cc1)n1cc(C)ccc1=O (centres undefined)
cell number change: 8.58%
AC50 [1]: 6.51 µM [falling, single point]

O=C(CCN1C(=O)C2C3CCC(C3)C2C1=O)Nc1ccccc1C(F)(F)F (centres undefined)
cell number change: -17.6%
AC50 [1]: 32.6 µM [falling, single point]

O=C1c2ccccc2-c2onc3ccc(NCCCn4ccnc4)c1c23
cell number change: -50.5%
AC50 [2]: 29.1 µM [falling, single point]
AC50 [1]: 0.58 µM [rising, single point]

Nc1ccc2nc3c(=O)n(CCc4ccccc4)c(=O)[nH]c3nc2c1
cell number change: -42.8%
AC50 [2]: 29.1 µM [falling, single point]
AC50 [1]: 29.1 µM [falling, partial curve, poor fit]

CSc1ncc(F)c(N(CCO)CCO)n1
cell number change: 1.14%
AC50 [1]: 3.26 µM [falling, single point]

COc1ccc(C(=O)CSc2nc3nc(C)cc(C)n3n2)cc1OC
cell number change: -3.28%
AC50 [1]: 0.146 µM [rising, full curve, poor fit]
